According to patent US20090041783A1:
These are yes or no findings as the source states them, for the method shown. Some binding calls cover weakened binding; strength is not graded here.

Legend:
[1] = target: cynomolgus monkey D1D2-human D3 chimeric GPVI-human Fc fusion protein (GPVI-FFH-hFc) (cynomolgus monkey (D1, D2) and human (D3)); assay: ELISA on immobilised GPVI-FFH-hFc, anti-human kappa detection
[2] = target: hGPVI-mL9-hFc (human (loop 9 from mouse)); assay: ELISA of hybridoma culture supernatant on coated hGPVI-mL9-hFc (selection criterion)

B1: mouse-human chimeric anti-GPVI antibody (Clone No. F1232-7-1) (antibody, IgG4, V domains shown)
VH: VQLQQSGPELVRPGESVKISCKGSGYTFTDYAIHWVKLSHAKSLEWIGVISIYYDDTNYNQKFKGKATMTVDKSSSTAYMELARLTSEDSAIYYCARRRDSSGPYAMDYWGQGTSVTVSS
VL: DIVLTQSPASLAVSLGQRATISCRASESVDSYGNSFMHWYQQKPGQPPKLLIYRASNLESGIPARFSGSGSRTDFTLTINPVEADDVATYYCQQSNEDPYTFGGGTKLEIKR
In the case of B1, the binding [1] is reported as “binds”.

B2: F1257-3-1 (antibody, V domains shown)
VH: QVTLKESGPGMLQPSKTLSLTCSFSGFSLSTSGMVVSWIRQPSGKSLEWLAAIDWDGDKYYNPSLKSRLTVSKDTSNTQVFLKISSVDIADTATYYCARTPYYGYKEAYYFDYWGQGVKVTVSS
VL: DIQMTQSPASLSASLEEIVTITCKASRAIDDYLSWYQQKPGKSPQLLIYDATSLADGVPSRFSGSRSGTQYSLKISRPQVDDSGIYYCLQSYSTPWTFGGGTKLDLKR
With B2 the binding [2] was “no binding (tested: absorbance equal to or less than 0.5)”.
